Measurements reported in article PMC11785899 (Cellular and Molecular Life Sciences: CMLS, 2025).

Chains of the proteins cited; added tags and fusions are not shown. Residues count along the entry.
UniProt Q9UHC7, 264-482: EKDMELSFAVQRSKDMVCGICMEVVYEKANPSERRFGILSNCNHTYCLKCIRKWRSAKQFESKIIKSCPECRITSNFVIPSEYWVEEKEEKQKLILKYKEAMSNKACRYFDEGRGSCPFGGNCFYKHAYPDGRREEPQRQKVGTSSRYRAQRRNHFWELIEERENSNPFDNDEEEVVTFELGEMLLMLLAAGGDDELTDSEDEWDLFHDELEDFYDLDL

Target: His/MKRN1 264–482 (MKRN1 C-terminal fragment) (Homo sapiens, UniProt Q9UHC7)
Test: biochemical

Which Kd does the source give for CC(C)(C)c1ccc(C(=O)CCCN2CCC(OC(c3ccccc3)c3ccccc3)CC2)cc1 [ebastine] here?
Its Kd is 7.6 µM.
